Hit rate of the full screen: of about 200,000 compounds, about 25 (0.01%) were called active. Inconclusive means that the source gave no clear call. Such entries were picked first, then a sample of the others. The call rests on the fitted dose curve; in most records, active means well fitted inhibition curve with a large enough effect in the signal ratio, with a control signal flat (not every such curve was filed as active); inconclusive means small, poorly fitted or top-dose-only effect, or effect the other way, or a change in a side signal; inactive means flat fitted curve, though single readings scatter; the % refers to the signal ratio. Where the call is inconclusive, the potency comes from a doubtful curve fit. “Side channel” marks fits to a control or component signal instead of the main read-out.
Assay: qHTS Assay for Modulators of Lamin A Splicing
Conditions: HeLa LMNA splicing GFP/RFP minigene ratio, 48 h
Procedure, shortened: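 S3 HeLa stable clones carrying a lamin A-EGFP splicing minigene plus DsRed2 were seeded at 600 cells/well in Opti-MEM with 2% FBS, pin-dosed and incubated 48 h at 37°C. Acumen cytometry (488 nm) gave the GFP/RFP total-intensity ratio.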

[1] = ratio change, negative = inhibition: at 46.1 µM (top of the series) unless noted
On the % scale 0 is the no-effect control and ±100 the full control effect; potency means the concentration at half of the fitted maximal effect.

## O=C(CSc1nc2nc(-c3cccs3)cc(C(F)(F)F)c2c(=O)[nH]1)Nc1c(F)c(F)c(F)c(F)c1F
[1]
  Potency: inconclusive: 7.94 µM [inhibitor, partial curve, poor fit]

## Cc1cc(NC(=O)CSc2nc3ccsc3c(=O)n2Cc2ccccn2)n[nH]1
[1]
  ratio change, negative = inhibition: inactive

## Cc1ccc(N(CC2=NCCN2)c2cccc(O)c2)cc1
At 46 µM (top of the series)
  ratio change, negative = inhibition: inconclusive: 12%
At 46.1 µM (top of the series)
  ratio change, negative = inhibition: inconclusive: -12.1%

## Cc1ccccc1Cn1nnc(C(=O)Nc2cccc(C)c2C)c1N
[1]
  ratio change, negative = inhibition: inconclusive: -1.12%

## CC(C)CSc1n[nH]c(N)n1
[1]
  ratio change, negative = inhibition: inconclusive: 13.7% [at 46 µM]

## Cc1c(C(=O)OCCOC(C)C)[nH]c2c1C(=O)CC(c1ccco1)C2 (configuration not stated)
[1]
  ratio change, negative = inhibition: inactive

## COc1ccc(/C=C/C(=O)C2CC2)cc1Cn1nc(C)c([N+](=O)[O-])c1C
[1]
  Potency: inconclusive: 12.6 µM [inhibitor, partial curve]

## CCOC(=O)c1ccccc1NC(=O)c1c(C)oc2ncnc(N3CCOCC3)c12
[1]
  ratio change, negative = inhibition: inactive

## S=C1NC2(CCCCC2)NN1c1ccccc1
[1]
  ratio change, negative = inhibition: inconclusive: 21.4% [at 46 µM]

## Cc1cccc(-n2c(SCC(=O)Nc3ccc(C)c(C)c3)nc3n[nH]c(C)c3c2=N)c1
[1]
  ratio change, negative = inhibition: inconclusive: 7.28% [at 46 µM]

## c1ccc(-c2cccc(-c3ccccn3)n2)nc1
[1]
  Potency: inconclusive: 5.62 µM [falling, single point]

## COCc1cc(=O)n2[nH]c(-c3ccsc3-n3c(C)ccc3C)cc2n1
[1]
  ratio change, negative = inhibition: inactive

## COc1ccc2c(Cl)c(C(=O)NC3CCS(=O)(=O)C3)sc2c1 (configuration not stated)
[1]
  ratio change, negative = inhibition: inconclusive: 4.68%

## O=C(CSc1nc2ccccc2n1CCc1ccccc1)NC1CC1
[1]
  ratio change, negative = inhibition: inconclusive: -6.75%

## CCN(CC)S(=O)(=O)c1ccc(N2CCCCC2)c(NC(=O)c2ccncc2)c1
[1]
  ratio change, negative = inhibition: inactive

## O=C1CCC(/C=C/c2ccccc2)=NN1Cc1ccccc1
[1]
  ratio change, negative = inhibition: inconclusive: -16.6% [at 46 µM]

## CC1CCCCN1c1ncnc(N)c1[N+](=O)[O-] (configuration not stated)
[1]
  ratio change, negative = inhibition: inconclusive: 35% [at 46 µM]

## CCCCc1nn2c(=O)cc(COC(=O)CNC(=O)COc3ccc(C)cc3)nc2s1
[1]
  ratio change, negative = inhibition: inconclusive: -5.59% [at 46 µM]

## CCOC(=O)C1=C(CN2CCN(c3ccc(C)cc3C)CC2)NC(=O)NC1c1ccc(OC)cc1 (configuration not stated)
[1]
  ratio change, negative = inhibition: inactive

## CCS(=O)(=O)N1Cc2ccccc2CC1C(=O)Nc1ncc(C)s1 (configuration not stated)
[1]
  ratio change, negative = inhibition: inconclusive: 2.87% [at 46 µM]

## COCCn1c(SCC(=O)N2CCc3ccccc3C2)nc2cc(Cl)ccc2c1=O
[1]
  ratio change, negative = inhibition: inconclusive: 7.12%

## CCc1cccc(CC)c1NC(=O)COC(=O)c1ccc2c(c1)S(=O)(=O)c1ccccc1C2=O
[1]
  ratio change, negative = inhibition: inactive

## CN(n1cnc2ccccc2c1=O)S(C)(=O)=O
[1]
  ratio change, negative = inhibition: inconclusive: -0.873% [at 46 µM]

## S=C(NCc1ccc(Cl)cc1)Nc1ccccc1
[1]
  ratio change, negative = inhibition: inconclusive: -48.6%

## O=C(/C=C/c1ccc(Cl)cc1)c1cccnc1
[1]
  ratio change, negative = inhibition: inconclusive: -33.6%

## COc1ccc(OC)c(-n2c(SC)nnc2-c2c[nH]c3ccccc23)c1
[1]
  ratio change, negative = inhibition: inactive

## COc1ccc(N2CC(NC(=O)N3CCN(c4ccccc4)CC3)CC2=O)cc1 (configuration not stated)
[1]
  ratio change, negative = inhibition: inconclusive: 8.75% [at 9.22 µM]

## COc1ccccc1NS(=O)(=O)c1cn(C)c(C)n1
[1]
  ratio change, negative = inhibition: inconclusive: -20.7% [at 46 µM]

## Cc1c(C(C)C)c(=O)n(-c2ccccc2)n1C
[1]
  Potency: inconclusive: 10 µM [inhibitor, partial curve, poor fit]

## CCC(=O)c1ccc(OCC(O)CN2CC(C)OC(C)C2)cc1 (configuration not stated)
[1]
  ratio change, negative = inhibition: inconclusive: -2.1%

## CCCc1cc(=O)n2[nH]c(C(F)(F)F)nc2n1
[1]
  ratio change, negative = inhibition: inconclusive: 20% [at 46 µM]

## CCOc1cccc(/C=N/Nc2ccc(S(=O)(=O)N(CC)CC)cn2)c1O
[1]
  Potency: inconclusive: 12.6 µM [fluorescent, single point]

## Cc1cc(C(F)(F)F)nc(CCNCc2c(C(=O)N3CCCC3)nc3ccccn23)n1
[1]
  ratio change, negative = inhibition: inconclusive: -10.8% [at 46 µM]

## O=C(CCc1ccccc1)NNC(=O)c1ccc(F)cc1
[1]
  ratio change, negative = inhibition: inconclusive: -6.48% [at 46 µM]

## COc1ccc(Nc2cc(C(=O)NCc3ccco3)c3ccccc3n2)c(OC)c1
[1]
  ratio change, negative = inhibition: inconclusive: -18.5%

## CCC1CCCCN1C(=O)Cn1c(=O)n(-c2ccc(Cl)c(Cl)c2)c(=O)c2c(C)c(C(=O)N(C)C)sc21 (configuration not stated)
[1]
  ratio change, negative = inhibition: inactive

## CCOc1ccc(NS(=O)(=O)c2ccc(SC)cc2)cc1
[1]
  Potency: inconclusive: 35.5 µM [fluorescent, single point]

## COc1ccccc1-c1nc(N(C)Cc2ccco2)c2ccccc2n1
[1]
  Potency: inconclusive: 11.2 µM [inhibitor, partial curve]

## CCN(c1cc(C)cc(C)c1)S(=O)(=O)c1nnc(NC(=O)c2ccccc2C)s1
[1]
  ratio change, negative = inhibition: inactive

## CC1Cc2ccccc2N1CC(=O)NC(c1ccccc1)c1ccccc1 (configuration not stated)
[1]
  ratio change, negative = inhibition: inactive

## CN(C)c1ccc(C(=O)NCc2ccc3c(c2)CCN3C(=O)c2ccc(Cl)cc2)cc1
[1]
  ratio change, negative = inhibition: inconclusive: -20.9% [at 46 µM]

## O=C(O)CC(NC(=O)C12CC3CC(CC(C3)C1)C2)c1ccc(OC2CCCC2)cc1 (configuration not stated)
[1]
  ratio change, negative = inhibition: inconclusive: 18.2% [at 9.22 µM]

## CN1CCN(C(=O)c2ccc3ccccc3c2)CC1
[1]
  ratio change, negative = inhibition: inactive

## Cc1ccc2c(c1)CCCN2C(=O)c1ccoc1C
[1]
  ratio change, negative = inhibition: inactive

## N#Cc1cc2c([nH]c1=O)CCCC2
[1]
  ratio change, negative = inhibition: inconclusive: -23.2% [at 46 µM]

## COc1ccc(CCN2C(=S)N(C)C(=O)C2CC(=O)Nc2ccc(F)cc2)cc1 (configuration not stated)
[1]
  ratio change, negative = inhibition: inconclusive: 9.06% [at 46 µM]

## Cc1cccc(C(=O)NCCNc2nc3cc(C)c(C)cc3cc2C)c1
[1]
  ratio change, negative = inhibition: inconclusive: -28.5% [at 46 µM]

## O=C(c1ccccc1)c1ccc(OCCCN2CCCCC2)cc1
[1]
  ratio change, negative = inhibition: inconclusive: 30.4%

## COc1ccccc1-c1c(C)nn2c(N3CCN(c4ccc(F)cc4)CC3)cc(C)nc12
[1]
  ratio change, negative = inhibition: inconclusive: -24.8% [at 46 µM]

## COc1ccc(N2CCN(C(=S)NCc3ccccc3)CC2)cc1
[1]
  ratio change, negative = inhibition: inconclusive: 5.76% [at 46 µM]

## COc1ccccc1N1CCN(C(=O)CCCn2nc(C)c([N+](=O)[O-])c2C)CC1
[1]
  ratio change, negative = inhibition: inconclusive: 20.6% [at 46 µM]

## COc1cccc(C2=NN(C(=O)c3cccs3)C(O)(C(F)(F)F)C2)c1 (configuration not stated)
[1]
  ratio change, negative = inhibition: inconclusive: 14.8% [at 46 µM]

## C[C@]12CCC(=O)C=C1CCC1C2C(=O)C[C@]2(C)C1CC[C@]2(O)C(=O)CO (some centres not stated)
[1]
  ratio change, negative = inhibition: inconclusive: -15.9%

## Cc1ccc(-n2cc(CNC(C)c3cnn(C)c3)c(-c3ccc(F)cc3)n2)cc1 (configuration not stated)
[1]
  ratio change, negative = inhibition: inactive

## CCc1nnc2c3ccccc3nc(N3CCN(c4cc(Cl)ccc4C)CC3)n12
[1]
  ratio change, negative = inhibition: inconclusive: -46.4% [at 46 µM]

## Cc1ccc(Cn2c(CO)cnc2SCC(=O)Nc2cccc(F)c2)cc1
[1]
  ratio change, negative = inhibition: inconclusive: 6.89% [at 46 µM]

## Cc1cc(Br)ccc1SCC(=O)OCC(=O)NC1CC1
[1]
  ratio change, negative = inhibition: inactive

## COc1ccccc1-c1nccc(Nc2ccc(F)cc2)n1
[1]
  ratio change, negative = inhibition: inconclusive: -12%

## CC(C)Nc1nnc(SCC(=O)Nc2ccc3c(c2)C(=O)c2ccccc2C3=O)s1
[1]
  Potency: inconclusive: 35.5 µM [fluorescent, single point]

## CC(C)(C)c1ccc(C(=O)Nc2nnc3n2CCS3)cc1
[1]
  ratio change, negative = inhibition: inconclusive: -0.999% [at 46 µM]

## O=C(NCCO)c1ccc(Cl)c(Cl)c1
[1]
  ratio change, negative = inhibition: inconclusive: 2.99%

## COc1cccc(NC(=O)Cn2c(=O)oc3ccccc32)c1
[1]
  ratio change, negative = inhibition: inactive

## CN1c2ccccc2-c2nc3ccccc3n2C1c1cccs1 (configuration not stated)
[1]
  ratio change, negative = inhibition: inconclusive: 7.03%

## CC(CCc1ccccc1)NC(=O)Cn1c(=O)nc(-c2ccccc2F)c2cc(Cl)ccc21 (configuration not stated)
[1]
  ratio change, negative = inhibition: inconclusive: -30% [at 46 µM]

## COc1ccc(Cn2ccnc2SCC(=O)NC2CCCC2)cc1
[1]
  ratio change, negative = inhibition: inconclusive: 8.05% [at 46 µM]

## CCCCCn1c(SCC#N)nc2cc(C(=O)NCC3CCCO3)ccc2c1=O (configuration not stated)
[1]
  ratio change, negative = inhibition: inactive

## COc1cccc(/C=C2\CCc3ccccc3C2=O)c1
[1]
  ratio change, negative = inhibition: inconclusive: 171% [at 46 µM]

## CCOC(=O)c1c(C)oc2c1c(C=NCc1ccccn1)c(O)c1ccccc12
[1]
  Potency: inconclusive: 20 µM [inhibitor, single point]

## COc1ccc(C(=O)C(C)OC(=O)c2cccc(S(=O)(=O)Nc3cc(Cl)c(OC)cc3OC)c2)cc1 (configuration not stated)
[1]
  Potency: inconclusive: 10 µM [fluorescent, partial curve]

## Cc1noc(C)c1CSc1ncnc2ccccc12
[1]
  Potency: inconclusive: 15.8 µM [inhibitor, single point]

## CCCc1nc2scc(-c3ccc(C)cc3)c2c(=O)n1N
[1]
  Potency: inconclusive: 35.5 µM [falling, single point]

## O=C(O)CCCCCNS(=O)(=O)c1cccc2c1C(=O)c1ccccc1C2=O
[1]
  Potency: inconclusive: 35.5 µM [falling, single point]

## Oc1c(C(c2ccccc2)N2CCN(c3cccc(Cl)c3)CC2)sc2nc(-c3ccco3)nn12 (configuration not stated)
[1]
  ratio change, negative = inhibition: inactive

## CC(O)CN(CCC(N)=O)CCC(N)=O (configuration not stated)
[1]
  ratio change, negative = inhibition: inactive

## O=C(CCN1C(=O)S/C(=C\c2cccs2)C1=O)NC1=NCCS1
[1]
  ratio change, negative = inhibition: inconclusive: 18.4%

## CCCCCCn1c(SCCN2CCOCC2)nc2c1c(=O)[nH]c(=O)n2C
[1]
  ratio change, negative = inhibition: inactive

## OCC1OC(O)C(O)C(O)C1O (configuration not stated)
[1]
  ratio change, negative = inhibition: inconclusive: 6.78%

## CSc1nc(Nc2ccc(C)cc2)c(C#N)c(-c2ccccc2)n1
[1]
  ratio change, negative = inhibition: inconclusive: -4.87% [at 46 µM]

## c1ccc(COc2ccc(OCCCN3CCCC3)cc2)cc1
[1]
  ratio change, negative = inhibition: inconclusive: 5.9%

## Cc1nnc(SCC(=O)NNC(=O)c2ccc(Br)cc2)n1C
[1]
  Potency: inconclusive: 4470 µM [side channel, falling, partial curve, poor fit]

## CCOC(=O)CCC(=O)Nc1ccc([N+](=O)[O-])cc1C
[1]
  ratio change, negative = inhibition: inconclusive: 2.81% [at 46 µM]

Reference: PubChem BioAssay AID1487 (National Center for Advancing Translational Sciences (NCATS), 2009)
